The source of these data is patent US20220281965A1 (AstraZeneca / MedImmune, published 2022).

Results are given in words; binding and its absence hold for the method and conditions named. Some entries that bind do so weakly or less than the wild type.

This assay has as its target T1, mouse GDF-15 (mouse, UniProt Q9Z0J7 189-303).
T1 construct: also called mGDF-15
T1 sequence: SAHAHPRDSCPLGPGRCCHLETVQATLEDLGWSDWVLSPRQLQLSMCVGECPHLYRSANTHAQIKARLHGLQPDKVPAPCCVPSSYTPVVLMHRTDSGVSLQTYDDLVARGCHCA
The experiment in a line: HTRF binding assay, biotinylated antigen, titration of antibody. An excerpt: Supernatants generated from the immunizations with human GDF-15 and purified IgGs were screened to identify IgGs with specific binding to human, cynomolgus, or mouse GDF-15. The HTRF (Homogeneous Time Resolved Fluorescence) assay is based on detection of a measurable FRET signal upon binding of a titration of test antibody to biotinylated human H202D GDF-15 variant, cynomolgus GDF-15 and mouse GDF-15. Europium cryptate (EuK) labelled Streptavidin and anti-human IgG XL665 (Cis Bio) were used as secondary detection reagents serving as energy donor and acceptor respectively. In the absence of test antibody binding, there is no detectable FRET fluorescence. When test antibody binds to GDF-15, the resulting physical proximity between the secondary reagent donor/acceptor pair results in FRET. FRET was measured ratiometrically [665 nm (acceptor)/620 nm (donor)] on an Envision plate reader, and data plotted using PRISM 6® software (Graphpad).

B1: AB1170019 (antibody, V domains shown)
VH: EVQLQQSGPELVKPGASVKIPCKASGYTFTDYNMDWVKQSHGKSLEWIGDINPNNGGTFYNQKFKDKATLTVDKSSSTAYMELRSLTSEDTAVYYCAREEKLYFGLMDYWGQGTSVTVSS
VL: DIQMTQSPASLSASVGETVTITCRASENIYSYLAWYQQKQGKSPQLLVYNAKTLAEGVPSRFSGSGSGIQFSLKINILQPEDFGNYYCQHQYGSPPTFGGGTKLEIK
Take B1: the binding result is reported as “binds”.
